# Source: the M2OR odorant receptor database
# The entries are a selection whose mix differs from that of the whole data set. The calls were merged from several studies; some rest on single wells. Some of the results follow.
# Tests used:
# Details in all cases: stereoisomer not certain
# OR6J1 = test system: T1, OR6J1
# T1 sequence (whole entry): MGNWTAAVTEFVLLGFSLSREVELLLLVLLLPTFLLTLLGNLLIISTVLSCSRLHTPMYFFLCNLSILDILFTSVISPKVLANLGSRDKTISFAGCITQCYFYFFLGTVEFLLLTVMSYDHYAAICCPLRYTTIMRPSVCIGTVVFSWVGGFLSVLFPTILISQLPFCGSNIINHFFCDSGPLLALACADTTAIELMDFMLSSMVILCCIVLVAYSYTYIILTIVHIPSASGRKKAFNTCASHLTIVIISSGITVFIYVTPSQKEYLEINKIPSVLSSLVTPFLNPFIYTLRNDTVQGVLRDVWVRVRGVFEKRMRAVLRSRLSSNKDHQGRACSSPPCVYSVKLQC
# Outline: (§1)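 Assay methods differ from source to source, frequently being transient luciferase assays in mammalian cell lines. For each receptor–molecule pair, the label responsive (active) applies when the original authors judged the measured signal statistically different from baseline, and non-responsive (inactive) applies otherwise.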
# OR6K2 (Homo sapiens) = target: T2, OR6K2 (Homo sapiens) (UniProt Q8NGY2)
# T2 sequence (whole entry): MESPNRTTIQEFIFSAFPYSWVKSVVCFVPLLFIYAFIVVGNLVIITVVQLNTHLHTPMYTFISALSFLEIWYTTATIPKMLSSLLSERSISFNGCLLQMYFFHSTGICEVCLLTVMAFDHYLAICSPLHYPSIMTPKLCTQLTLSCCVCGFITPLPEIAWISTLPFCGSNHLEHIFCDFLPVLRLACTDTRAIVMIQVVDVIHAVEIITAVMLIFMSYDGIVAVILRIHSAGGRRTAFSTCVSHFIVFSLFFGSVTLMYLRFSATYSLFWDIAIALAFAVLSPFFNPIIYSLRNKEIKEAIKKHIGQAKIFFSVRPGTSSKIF
# Outline: as §1
# OR6K3 [1] = test system: T3, OR6K3
# T3 sequence (whole entry): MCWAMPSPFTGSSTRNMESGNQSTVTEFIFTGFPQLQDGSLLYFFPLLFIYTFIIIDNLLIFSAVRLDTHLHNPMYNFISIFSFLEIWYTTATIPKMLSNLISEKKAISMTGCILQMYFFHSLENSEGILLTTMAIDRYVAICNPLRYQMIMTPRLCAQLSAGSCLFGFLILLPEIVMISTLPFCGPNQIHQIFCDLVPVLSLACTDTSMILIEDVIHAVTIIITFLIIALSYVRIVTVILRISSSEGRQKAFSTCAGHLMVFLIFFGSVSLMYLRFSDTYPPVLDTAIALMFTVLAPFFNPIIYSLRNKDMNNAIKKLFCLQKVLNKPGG
# Outline: as §1
# OR6K3 [2] = test system: T4, OR6K3; remark: listed apart in the source
# T4 sequence (whole entry): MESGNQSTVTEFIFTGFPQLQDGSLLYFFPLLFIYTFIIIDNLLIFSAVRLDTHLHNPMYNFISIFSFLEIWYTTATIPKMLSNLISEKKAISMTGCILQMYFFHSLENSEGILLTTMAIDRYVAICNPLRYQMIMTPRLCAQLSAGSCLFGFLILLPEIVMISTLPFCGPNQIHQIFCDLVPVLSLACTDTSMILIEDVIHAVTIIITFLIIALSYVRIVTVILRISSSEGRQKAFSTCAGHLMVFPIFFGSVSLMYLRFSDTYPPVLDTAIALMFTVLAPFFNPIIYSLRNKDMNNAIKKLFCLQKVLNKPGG
# Outline: as §1
# OR6K6 [3] = test system: T5, OR6K6
# T5 sequence (whole entry): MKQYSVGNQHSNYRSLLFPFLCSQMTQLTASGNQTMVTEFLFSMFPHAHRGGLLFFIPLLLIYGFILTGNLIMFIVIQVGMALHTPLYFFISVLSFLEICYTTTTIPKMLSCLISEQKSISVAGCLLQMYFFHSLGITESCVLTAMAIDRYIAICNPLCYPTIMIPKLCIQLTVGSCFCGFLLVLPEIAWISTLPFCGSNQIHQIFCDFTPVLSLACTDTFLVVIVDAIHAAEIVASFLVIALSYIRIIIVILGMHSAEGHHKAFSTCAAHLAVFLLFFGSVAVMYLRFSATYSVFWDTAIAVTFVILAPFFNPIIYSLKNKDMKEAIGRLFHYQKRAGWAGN
# Outline: as §1
# OR6K6 [4] = test system: T6, OR6K6; remark: listed apart in the source
# T6 sequence (whole entry): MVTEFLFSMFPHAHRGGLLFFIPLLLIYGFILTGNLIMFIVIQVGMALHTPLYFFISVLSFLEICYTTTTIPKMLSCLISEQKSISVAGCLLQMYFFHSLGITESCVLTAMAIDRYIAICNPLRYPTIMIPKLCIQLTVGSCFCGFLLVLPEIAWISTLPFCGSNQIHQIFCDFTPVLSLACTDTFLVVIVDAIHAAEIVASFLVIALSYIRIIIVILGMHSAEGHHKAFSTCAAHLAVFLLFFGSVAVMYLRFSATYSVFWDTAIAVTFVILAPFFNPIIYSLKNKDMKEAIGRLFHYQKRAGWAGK
# Outline: as §1
SMILES,odorant receptor agonist call (OR6J1),odorant receptor agonist call (OR6K2 (Homo sapiens)),odorant receptor agonist call (OR6K3 [1]),odorant receptor agonist call (OR6K3 [2]),odorant receptor agonist call (OR6K6 [3]),odorant receptor agonist call (OR6K6 [4])
CCCCCCOC(=O)CCC,inactive,inactive,inactive,inactive,inactive,inactive
CCCCCCCOC(C)=O,inactive,inactive,inactive,inactive,inactive,inactive
CC(=O)C(C)=O,inactive,inactive,inactive,inactive,inactive,inactive
CC(C)CCC(=O)O,inactive,inactive,inactive,inactive,inactive,inactive
CCCCCCCCCC=O,inactive,inactive,inactive,inactive,inactive,inactive
CCCCCC(C)=O,,inactive,inactive,inactive,inactive,inactive
CCCCCCCCCCC=O,inactive,inactive,inactive,inactive,inactive,inactive
CC(=O)OC(C)(C)C1CC=C(C)CC1 (stereo not given),active,inactive,inactive,inactive,inactive,inactive
CC=Cc1ccc(O)c(OC)c1,active,inactive,inactive,inactive,inactive,inactive
COc1cc(C=O)ccc1O,inactive,inactive,inactive,inactive,inactive,inactive
CCCCCC(=O)O,inactive,inactive,inactive,inactive,inactive,inactive
O=C1CCCCCCCCCCCCCCO1,inactive,inactive,inactive,inactive,inactive,inactive
CCC1(O)C2(C)CCC(C2)C1(C)C (stereo not given),inactive,inactive,inactive,inactive,inactive,inactive
c1ccc(Oc2ccccc2)cc1,inactive,inactive,inactive,inactive,inactive,inactive
COC(=O)c1ccccc1O,inactive,inactive,inactive,inactive,inactive,inactive
CC12CCC(CC1)C(C)(C)O2,inactive,inactive,inactive,inactive,inactive,inactive
CC(=O)c1ccccc1,,inactive,inactive,inactive,inactive,inactive
CCCCO,inactive,inactive,inactive,inactive,inactive,inactive
CCCCCCCC=O,inactive,inactive,inactive,inactive,inactive,inactive
COC(=O)c1ccccc1,,inactive,inactive,inactive,inactive,inactive
O=C1CCCCCCCCCCCC(=O)OCCO1,inactive,inactive,inactive,inactive,inactive,inactive
CC1=NC(C)SC1C (stereo not given),,inactive,inactive,inactive,inactive,inactive
O=CCc1ccccc1,inactive,inactive,inactive,inactive,inactive,inactive
O=C1CCCCC1,,inactive,inactive,inactive,inactive,inactive
CC(=O)OC1CC2CCC1(C)C2(C)C (stereo not given),inactive,inactive,inactive,inactive,inactive,inactive

# 3 compounds from above, sorted by molecular weight, descending:
SMILES,odorant receptor agonist call (OR6J1),odorant receptor agonist call (OR6K2 (Homo sapiens)),odorant receptor agonist call (OR6K3 [1]),odorant receptor agonist call (OR6K3 [2]),odorant receptor agonist call (OR6K6 [3]),odorant receptor agonist call (OR6K6 [4])
O=C1CCCCCCCCCCCCCCO1,inactive,inactive,inactive,inactive,inactive,inactive
CCCCCCCCCCC=O,inactive,inactive,inactive,inactive,inactive,inactive
CCCCCCCOC(C)=O,inactive,inactive,inactive,inactive,inactive,inactive
